Laboratory results reported in the supplement of paper PMC10849652.
The other results are listed elsewhere or left out.

Protein sequences, listed by entry. Tags and fused reporters are not part of them. Lines headed by an entry give the natural chain unless they say otherwise; changes in a name come on top.
UniProt Q9H813: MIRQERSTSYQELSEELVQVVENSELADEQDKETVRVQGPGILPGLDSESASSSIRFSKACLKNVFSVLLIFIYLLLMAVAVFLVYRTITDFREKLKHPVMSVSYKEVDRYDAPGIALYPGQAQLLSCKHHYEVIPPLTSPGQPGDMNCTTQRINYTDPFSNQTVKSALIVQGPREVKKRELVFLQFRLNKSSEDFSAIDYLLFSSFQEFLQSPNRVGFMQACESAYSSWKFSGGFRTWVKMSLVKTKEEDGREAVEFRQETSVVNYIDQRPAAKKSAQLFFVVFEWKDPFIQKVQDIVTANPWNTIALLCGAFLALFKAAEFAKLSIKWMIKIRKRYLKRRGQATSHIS
UniProt Q9H6A9: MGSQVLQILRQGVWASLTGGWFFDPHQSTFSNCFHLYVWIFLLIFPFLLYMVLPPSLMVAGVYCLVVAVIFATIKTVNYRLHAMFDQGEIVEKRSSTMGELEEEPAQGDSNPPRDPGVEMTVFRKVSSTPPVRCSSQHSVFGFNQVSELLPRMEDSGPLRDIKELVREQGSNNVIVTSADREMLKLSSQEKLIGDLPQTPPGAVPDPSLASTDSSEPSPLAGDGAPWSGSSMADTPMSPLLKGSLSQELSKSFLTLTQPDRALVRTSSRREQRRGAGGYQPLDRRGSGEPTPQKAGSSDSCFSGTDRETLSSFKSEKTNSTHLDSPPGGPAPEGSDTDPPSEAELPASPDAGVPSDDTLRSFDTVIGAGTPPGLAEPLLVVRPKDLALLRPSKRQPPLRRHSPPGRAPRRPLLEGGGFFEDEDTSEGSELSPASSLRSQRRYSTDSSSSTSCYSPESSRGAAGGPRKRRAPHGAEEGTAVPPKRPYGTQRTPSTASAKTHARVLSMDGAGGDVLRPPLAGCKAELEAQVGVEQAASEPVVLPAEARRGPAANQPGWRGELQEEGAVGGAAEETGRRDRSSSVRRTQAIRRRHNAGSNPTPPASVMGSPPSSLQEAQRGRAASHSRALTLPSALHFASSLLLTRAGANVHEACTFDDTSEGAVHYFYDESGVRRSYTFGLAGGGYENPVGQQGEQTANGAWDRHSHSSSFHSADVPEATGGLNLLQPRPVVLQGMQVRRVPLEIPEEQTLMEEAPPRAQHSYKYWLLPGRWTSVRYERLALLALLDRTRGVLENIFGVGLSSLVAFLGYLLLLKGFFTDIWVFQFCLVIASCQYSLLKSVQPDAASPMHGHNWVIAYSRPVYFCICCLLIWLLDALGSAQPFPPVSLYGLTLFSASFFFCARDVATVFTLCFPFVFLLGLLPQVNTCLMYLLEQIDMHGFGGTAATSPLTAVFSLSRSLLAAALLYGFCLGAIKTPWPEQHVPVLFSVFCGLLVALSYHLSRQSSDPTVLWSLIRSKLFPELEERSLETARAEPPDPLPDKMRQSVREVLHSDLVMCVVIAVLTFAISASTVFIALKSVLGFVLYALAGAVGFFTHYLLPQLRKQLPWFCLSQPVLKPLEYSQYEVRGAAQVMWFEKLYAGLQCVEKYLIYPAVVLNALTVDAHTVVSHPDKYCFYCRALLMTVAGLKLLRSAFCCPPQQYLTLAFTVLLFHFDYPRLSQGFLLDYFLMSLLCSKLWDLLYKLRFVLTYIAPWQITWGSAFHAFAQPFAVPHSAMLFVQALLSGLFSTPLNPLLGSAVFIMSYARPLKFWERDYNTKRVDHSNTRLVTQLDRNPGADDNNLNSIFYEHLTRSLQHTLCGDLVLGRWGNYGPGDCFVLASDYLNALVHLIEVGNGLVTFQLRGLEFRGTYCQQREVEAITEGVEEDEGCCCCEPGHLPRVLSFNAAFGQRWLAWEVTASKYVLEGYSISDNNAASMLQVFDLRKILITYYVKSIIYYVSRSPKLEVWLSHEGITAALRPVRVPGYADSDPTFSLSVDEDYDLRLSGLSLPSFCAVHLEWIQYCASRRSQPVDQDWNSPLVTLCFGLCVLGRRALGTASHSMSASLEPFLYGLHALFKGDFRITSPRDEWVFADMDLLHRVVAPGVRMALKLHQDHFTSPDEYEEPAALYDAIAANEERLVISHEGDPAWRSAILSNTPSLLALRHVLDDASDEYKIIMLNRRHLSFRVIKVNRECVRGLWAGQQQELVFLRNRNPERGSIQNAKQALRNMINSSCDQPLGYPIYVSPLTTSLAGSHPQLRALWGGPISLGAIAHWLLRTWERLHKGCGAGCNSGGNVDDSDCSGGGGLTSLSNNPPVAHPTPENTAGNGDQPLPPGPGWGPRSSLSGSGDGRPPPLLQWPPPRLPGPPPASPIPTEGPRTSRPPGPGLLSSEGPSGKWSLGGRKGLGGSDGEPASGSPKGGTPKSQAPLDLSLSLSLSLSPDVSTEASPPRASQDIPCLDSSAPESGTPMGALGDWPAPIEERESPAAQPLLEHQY
UniProt Q9UKK3: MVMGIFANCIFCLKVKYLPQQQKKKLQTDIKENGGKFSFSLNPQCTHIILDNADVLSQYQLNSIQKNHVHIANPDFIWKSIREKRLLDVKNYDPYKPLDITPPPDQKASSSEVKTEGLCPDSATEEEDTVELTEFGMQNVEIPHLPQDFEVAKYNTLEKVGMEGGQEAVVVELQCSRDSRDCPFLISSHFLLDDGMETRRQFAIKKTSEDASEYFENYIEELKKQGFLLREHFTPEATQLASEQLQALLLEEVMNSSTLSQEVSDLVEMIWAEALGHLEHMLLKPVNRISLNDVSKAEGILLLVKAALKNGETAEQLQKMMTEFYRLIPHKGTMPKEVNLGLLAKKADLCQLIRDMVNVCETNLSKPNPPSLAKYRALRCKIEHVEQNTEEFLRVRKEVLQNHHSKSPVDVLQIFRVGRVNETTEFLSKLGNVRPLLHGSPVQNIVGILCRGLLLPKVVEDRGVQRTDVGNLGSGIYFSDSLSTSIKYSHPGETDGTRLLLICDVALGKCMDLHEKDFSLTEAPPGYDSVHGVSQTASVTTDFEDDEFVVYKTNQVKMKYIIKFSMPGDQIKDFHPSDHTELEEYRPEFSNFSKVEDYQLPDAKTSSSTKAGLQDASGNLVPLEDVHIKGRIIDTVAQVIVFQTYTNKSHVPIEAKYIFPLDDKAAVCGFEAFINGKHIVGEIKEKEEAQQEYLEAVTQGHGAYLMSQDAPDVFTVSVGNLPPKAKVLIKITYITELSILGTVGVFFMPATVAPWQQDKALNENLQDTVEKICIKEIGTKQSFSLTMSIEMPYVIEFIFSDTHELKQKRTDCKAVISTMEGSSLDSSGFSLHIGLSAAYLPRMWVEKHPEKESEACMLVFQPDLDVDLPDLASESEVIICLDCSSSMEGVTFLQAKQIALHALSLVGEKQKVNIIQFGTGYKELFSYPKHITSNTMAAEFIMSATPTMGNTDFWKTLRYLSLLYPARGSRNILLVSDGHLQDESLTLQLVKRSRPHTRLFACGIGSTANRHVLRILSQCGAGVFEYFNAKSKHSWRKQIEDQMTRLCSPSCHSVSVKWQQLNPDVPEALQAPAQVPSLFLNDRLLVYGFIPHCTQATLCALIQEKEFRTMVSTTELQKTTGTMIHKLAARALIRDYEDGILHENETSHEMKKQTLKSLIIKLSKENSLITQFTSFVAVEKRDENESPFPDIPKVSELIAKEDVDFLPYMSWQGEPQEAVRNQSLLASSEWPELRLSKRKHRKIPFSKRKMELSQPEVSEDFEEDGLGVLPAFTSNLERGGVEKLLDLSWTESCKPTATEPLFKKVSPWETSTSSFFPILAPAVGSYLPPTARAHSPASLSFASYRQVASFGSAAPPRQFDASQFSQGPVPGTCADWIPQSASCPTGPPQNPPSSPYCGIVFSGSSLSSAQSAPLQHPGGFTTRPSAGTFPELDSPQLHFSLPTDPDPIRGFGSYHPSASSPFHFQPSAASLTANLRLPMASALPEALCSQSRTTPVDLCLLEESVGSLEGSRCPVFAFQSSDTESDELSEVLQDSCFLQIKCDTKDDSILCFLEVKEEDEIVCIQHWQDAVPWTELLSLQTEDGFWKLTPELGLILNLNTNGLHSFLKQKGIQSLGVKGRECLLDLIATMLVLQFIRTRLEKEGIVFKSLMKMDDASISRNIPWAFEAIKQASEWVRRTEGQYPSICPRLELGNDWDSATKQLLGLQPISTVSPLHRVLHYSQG
UniProt Q58A45: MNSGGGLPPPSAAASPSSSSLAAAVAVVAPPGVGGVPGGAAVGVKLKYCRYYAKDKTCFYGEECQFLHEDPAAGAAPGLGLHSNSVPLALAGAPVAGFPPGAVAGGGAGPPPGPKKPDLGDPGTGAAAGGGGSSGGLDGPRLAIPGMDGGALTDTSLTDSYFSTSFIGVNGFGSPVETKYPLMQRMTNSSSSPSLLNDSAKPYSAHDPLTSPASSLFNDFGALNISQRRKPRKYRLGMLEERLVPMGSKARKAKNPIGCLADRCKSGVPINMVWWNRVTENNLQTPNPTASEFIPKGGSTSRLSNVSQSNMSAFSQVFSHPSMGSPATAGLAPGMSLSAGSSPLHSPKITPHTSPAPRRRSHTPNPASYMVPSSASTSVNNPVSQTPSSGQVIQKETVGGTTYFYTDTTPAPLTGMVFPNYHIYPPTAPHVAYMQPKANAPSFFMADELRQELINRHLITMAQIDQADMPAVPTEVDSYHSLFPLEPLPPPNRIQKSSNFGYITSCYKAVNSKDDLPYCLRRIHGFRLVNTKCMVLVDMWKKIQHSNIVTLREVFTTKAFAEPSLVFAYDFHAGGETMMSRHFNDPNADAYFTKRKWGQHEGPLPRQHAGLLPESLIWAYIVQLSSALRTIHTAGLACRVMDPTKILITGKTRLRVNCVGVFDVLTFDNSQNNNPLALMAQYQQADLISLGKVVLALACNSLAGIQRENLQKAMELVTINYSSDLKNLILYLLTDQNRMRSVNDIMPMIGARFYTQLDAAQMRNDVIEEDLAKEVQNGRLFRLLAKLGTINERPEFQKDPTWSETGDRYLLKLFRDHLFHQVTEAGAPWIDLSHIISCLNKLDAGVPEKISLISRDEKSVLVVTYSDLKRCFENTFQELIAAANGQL
UniProt P27815: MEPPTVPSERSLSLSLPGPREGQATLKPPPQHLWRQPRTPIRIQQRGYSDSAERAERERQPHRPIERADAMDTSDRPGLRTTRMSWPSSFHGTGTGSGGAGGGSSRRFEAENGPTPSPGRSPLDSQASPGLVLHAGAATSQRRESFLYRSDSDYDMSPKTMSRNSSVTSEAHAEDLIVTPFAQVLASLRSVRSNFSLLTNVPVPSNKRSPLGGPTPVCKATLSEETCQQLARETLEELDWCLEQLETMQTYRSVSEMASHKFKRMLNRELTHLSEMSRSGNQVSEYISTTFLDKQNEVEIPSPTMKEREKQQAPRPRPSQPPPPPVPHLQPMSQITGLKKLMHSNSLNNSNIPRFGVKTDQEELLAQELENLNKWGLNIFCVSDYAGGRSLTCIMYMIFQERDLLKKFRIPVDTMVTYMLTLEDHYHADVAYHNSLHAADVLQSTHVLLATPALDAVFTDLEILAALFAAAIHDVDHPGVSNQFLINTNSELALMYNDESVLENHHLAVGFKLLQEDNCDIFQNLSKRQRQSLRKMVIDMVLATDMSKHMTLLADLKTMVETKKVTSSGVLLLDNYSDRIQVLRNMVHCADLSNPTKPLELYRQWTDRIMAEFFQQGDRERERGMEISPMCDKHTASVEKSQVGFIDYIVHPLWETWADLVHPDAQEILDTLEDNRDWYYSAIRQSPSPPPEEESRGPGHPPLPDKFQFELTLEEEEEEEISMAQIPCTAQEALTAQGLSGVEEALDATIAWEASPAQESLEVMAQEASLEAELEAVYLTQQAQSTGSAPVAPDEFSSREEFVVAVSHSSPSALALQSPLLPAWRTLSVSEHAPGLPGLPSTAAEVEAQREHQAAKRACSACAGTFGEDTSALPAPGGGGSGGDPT
UniProt Q96MG8: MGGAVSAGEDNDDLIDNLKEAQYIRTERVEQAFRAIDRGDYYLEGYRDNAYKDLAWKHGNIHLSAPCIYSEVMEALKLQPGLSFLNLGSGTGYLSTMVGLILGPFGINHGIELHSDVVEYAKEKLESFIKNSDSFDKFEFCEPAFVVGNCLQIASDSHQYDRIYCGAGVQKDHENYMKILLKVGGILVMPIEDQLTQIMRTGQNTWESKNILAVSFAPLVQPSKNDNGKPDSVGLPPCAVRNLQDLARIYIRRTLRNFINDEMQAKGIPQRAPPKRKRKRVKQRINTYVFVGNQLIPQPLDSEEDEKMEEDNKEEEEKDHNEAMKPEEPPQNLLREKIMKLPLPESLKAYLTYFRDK
UniProt Q9BYE7: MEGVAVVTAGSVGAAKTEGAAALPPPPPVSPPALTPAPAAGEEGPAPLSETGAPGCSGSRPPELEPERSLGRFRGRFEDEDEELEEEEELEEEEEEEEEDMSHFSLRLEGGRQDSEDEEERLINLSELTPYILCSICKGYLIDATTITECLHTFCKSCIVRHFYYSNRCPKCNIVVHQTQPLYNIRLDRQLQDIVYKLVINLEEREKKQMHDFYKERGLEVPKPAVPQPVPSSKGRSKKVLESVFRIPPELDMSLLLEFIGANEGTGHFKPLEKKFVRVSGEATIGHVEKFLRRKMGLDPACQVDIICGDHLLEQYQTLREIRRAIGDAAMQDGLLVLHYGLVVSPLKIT

Columns and labels:
Assay in all cases: log2 fold change, soluble protein after heating vs DMSO (PISA); higher = thermal stabilisation; K562 cells, 10 uM, 30 min; active = over 0.2 and 3.5 SD of the protein, either way, in both replicates (recomputed)
[1] = compound: CC[C@H](C)N1C=C(C2=C(C=C(C=C21)C3=CN=C(C=C3)N4CCNCC4)C(=O)NCC5=C(C=C(NC5=O)C)C)C
Procedure, shortened: (§1)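 K562 cells at 2×10^6 cells/mL were treated with 10 μM compound for 30 min. Aliquots were heated for 3 min across 48°C-58°C, pooled, and extracted in PBS with 0.5% NP-40 at 4°C; soluble protein was the supernatant after 21,000xg for 90 min. Soluble protein was quantified by TMTpro 16plex LC-MS/MS with channel sums equalised, and reported as log2 fold change in thermal stability against DMSO controls, with values from duplicates.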

[2] = compound: CN1C2=C(C3=C1C(=O)N(N=C3)CC4=CC(=CC=C4)N)SC(=C2)S(=O)C
Procedure, shortened: as §1

saracatinib = compound: CN1CCN(CCOc2cc(OC3CCOCC3)c3c(Nc4c(Cl)ccc5c4OCO5)ncnc3c2)CC1 [saracatinib]
Procedure, shortened: as §1

[3] = compound: CNC(=O)C1=CC=CC=C1NC2=NC(=NC=C2Cl)NC3=C(C=C(C=C3)N4CCOCC4)OC
Procedure, shortened: as §1

[4] = compound: CNc1nc(-c2ccc3c(N)n[nH]c3c2)cc(N2C[C@@H](C(=O)NC3CCCCC3)CC[C@H]2C)n1
Procedure, shortened: as §1

Tubastatin A = compound: CN1CCc2c(c3ccccc3n2Cc2ccc(C(=O)NO)cc2)C1 [Tubastatin A]
Procedure, shortened: as §1

volasertib = compound: CC[C@@H]1C(=O)N(C)c2cnc(Nc3ccc(C(=O)N[C@H]4CC[C@H](N5CCN(CC6CC6)CC5)CC4)cc3OC)nc2N1C(C)C [volasertib]
Procedure, shortened: as §1

epoxomicin = compound: CC[C@H](C)[C@@H](C(=O)N[C@@H]([C@@H](C)O)C(=O)N[C@@H](CC(C)C)C(=O)[C@]1(CO1)C)NC(=O)[C@H]([C@@H](C)CC)N(C)C(=O)C [epoxomicin]
Procedure, shortened: as §1

[5] = compound: CCn1cc(-c2ccnc3[nH]c(-c4cccc(CN(C)C)c4)cc23)c(-c2ccc(NC(=O)N(C)C)cc2)n1
Procedure, shortened: as §1

[6] = compound: CN(C)CC(=O)Nc1ccc2[nH]c(=O)c3ccccc3c2c1
Procedure, shortened: as §1

[7] = compound: CN1CCC(CNc2ccc3ncc(-c4cccc(OC(F)(F)F)c4)n3n2)CC1
Procedure, shortened: as §1

sotrastaurin = compound: CN1CCN(c2nc(C3=C(c4c[nH]c5ccccc45)C(=O)NC3=O)c3ccccc3n2)CC1 [sotrastaurin]
Procedure, shortened: as §1

defactinib = compound: CNC(=O)c1ccc(Nc2ncc(C(F)(F)F)c(NCc3nccnc3N(C)S(C)(=O)=O)n2)cc1 [defactinib]
Procedure, shortened: as §1

[8] = compound: COC(=O)[C@H](CCSC)NC(=O)C1=C(C=C(C=C1)NC[C@H](CS)N)C2=CC=CC=C2
Procedure, shortened: as §1

[9] = compound: CCn1c(C(=O)N(C2CC2)C2CC2)cc2c3c(ncn3C)c(Nc3cc(C)n(C)n3)nc21
Procedure, shortened: as §1

rosiglitazone = compound: CN(CCOC1=CC=C(C=C1)C[C@H]2C(=O)NC(=O)S2)C3=CC=CC=N3 (racemic) [rosiglitazone]
Procedure, shortened: as §1

alvocidib = compound: CN1CC[C@H](c2c(O)cc(O)c3c(=O)cc(-c4ccccc4Cl)oc23)[C@H](O)C1 [alvocidib]
Procedure, shortened: as §1

[10] = compound: CC[C@@H]1C(=O)N(C)c2cnc(Nc3ccc(C(=O)NC4CCN(C)CC4)cc3OC)nc2N1C1CCCC1
Procedure, shortened: as §1

rucaparib = compound: CNCc1ccc(-c2[nH]c3cc(F)cc4c3c2CCNC4=O)cc1 [rucaparib]
Procedure, shortened: as §1

encorafenib = compound: COC(=O)N[C@@H](C)CNc1nccc(-c2cn(C(C)C)nc2-c2cc(Cl)cc(NS(C)(=O)=O)c2F)n1 [encorafenib]
Procedure, shortened: as §1

Measured: log2 fold change

PCBP2 (UniProt F8VZX2)
inactive: [1] 0.075 | [2] 0.098 | saracatinib 0.009 | [3] 0.06 | [4] 0.084

PCMTD2 (UniProt Q9NV79)
inactive: [1] 0.276 | Tubastatin A 0.164

PCYT2 (UniProt I3L1F9)
inactive: volasertib -0.1

PDE6D (UniProt O43924)
inactive: [1] -0.179 | epoxomicin 0.105 | [5] -0.29 | [6] 0.05 | [2] -0.096 | [7] 0.061 | saracatinib -0.074 | sotrastaurin 0.035 | Tubastatin A 0.029 | [3] -0.102 | defactinib -0.043 | [4] 0.119 | [8] 0.068

PCSK7 (UniProt Q16549)
inactive: volasertib 0.006 | [9] 0.066 | [3] -0.05

PACS2 isoform 2 (UniProt Q86VP3)
inactive: sotrastaurin 0.182

PEX12 (UniProt O00623)
inactive: volasertib 0.14 | [1] 0.034 | epoxomicin 0.031 | [9] -0.012 | [5] -0.066 | [6] 0.111 | rosiglitazone 0.036 | [2] -0.105 | [7] 0.272 | saracatinib 0 | sotrastaurin -0.045 | alvocidib 0.017 | Tubastatin A -0.006 | [3] 0.008 | defactinib -0.017 | [4] 0 | [8] 0.141

PACC1 (UniProt Q9H813)
inactive: volasertib -0.063 | [1] -0.115 | epoxomicin -0.067 | [6] -0.063 | rosiglitazone 0.019 | [2] -0.117 | saracatinib -0.002 | sotrastaurin 0.144 | alvocidib -0.09 | Tubastatin A -0.04 | defactinib -0.038 | [4] 0.1 | [8] -0.004

Two records picked at random from those above, as already listed:
PACC1 (UniProt Q9H813)
inactive: volasertib -0.063 | [1] -0.115 | epoxomicin -0.067 | [6] -0.063 | rosiglitazone 0.019 | [2] -0.117 | saracatinib -0.002 | sotrastaurin 0.144 | alvocidib -0.09 | Tubastatin A -0.04 | defactinib -0.038 | [4] 0.1 | [8] -0.004

PCSK7 (UniProt Q16549)
inactive: volasertib 0.006 | [9] 0.066 | [3] -0.05

The list continues:

PCGF5 (UniProt Q86SE9)
inactive: [10] -0.168 | epoxomicin 0.264 | rosiglitazone 0.128 | [2] 0.335 | saracatinib -0.524 | sotrastaurin -0.025 | rucaparib -0.045 | [4] -0.462 | encorafenib -0.22

PACRGL (UniProt Q8N7B6)
inactive: sotrastaurin -0.075

PCNX3 (UniProt Q9H6A9)
inactive: volasertib -0.338 | [9] -0.017 | [3] 0.075

PCIF1 (UniProt Q9H4Z3)
inactive: [1] 0.119 | epoxomicin 0.15 | [9] -0.045 | [5] -0.07 | [6] 0.017 | rosiglitazone 0.087 | [2] 0.062 | [7] -0.004 | saracatinib 0.062 | sotrastaurin -0.021 | Tubastatin A -0.004 | [3] 0.081 | defactinib -0.148 | [4] 0.118 | [8] -0.04

PDXP (UniProt B1AHD3)
inactive: epoxomicin -0.003 | [6] -0.023 | alvocidib -0.19 | defactinib 0.075 | [8] 0.073

PCM1 isoform 2 (UniProt Q15154)
inactive: [5] -0.078 | [2] 0.432 | [7] 0.174 | saracatinib -0.185 | sotrastaurin 0.034 | [4] -0.031

PDP1 isoform 2 (UniProt Q9P0J1)
inactive: volasertib -0.191 | rosiglitazone 0.071 | sotrastaurin -0.077

PARP4 (UniProt Q9UKK3)
inactive: [2] -0.044 | saracatinib -0.059 | sotrastaurin 0.187 | [4] 0.098

PDE3B (UniProt Q13370)
inactive: epoxomicin -0.006

PEX10 isoform 2 (UniProt O60683)
inactive: volasertib -0.309 | [5] -0.146 | [2] -0.018 | [7] -0.143 | saracatinib -0.122 | sotrastaurin -0.013 | alvocidib 0.036 | Tubastatin A -0.271 | [4] 0.036

PAXBP1 (UniProt Q9Y5B6)
inactive: [10] -0.445 | [9] -0.048 | [5] 0.153 | rosiglitazone -0.089 | [7] 0.148 | Tubastatin A 0.014 | [3] -0.122 | rucaparib -0.049 | encorafenib 0.151

PAF1 (UniProt Q8N7H5)
inactive: epoxomicin -0.103 | [5] 0.101 | [2] 0.109 | [7] 0.138 | saracatinib 0.234 | alvocidib -0.249 | [4] -0.076

PBX2 (UniProt P40425)
inactive: volasertib -0.251 | [1] 0.025 | epoxomicin 0.123 | [5] -0.009 | [6] 0.023 | [2] -0.056 | [7] 0.024 | saracatinib 0.082 | sotrastaurin -0.023 | Tubastatin A -0.069 | [3] -0.022 | defactinib -0.36 | [4] -0.046 | [8] -0.044

PAN3 (UniProt Q58A45)
inactive: [5] -0.054 | [7] -0.23

PDE4A (UniProt P27815)
inactive: volasertib -0.331 | epoxomicin -0.124 | [6] 0.082 | Tubastatin A 0.054 | [3] 0.017 | defactinib -0.145 | [8] -0.018

PAFAH1B1 (UniProt I3L3N5)
inactive: volasertib 0.012 | [6] -0.076 | rosiglitazone 0.112 | [2] 0 | saracatinib -0.068 | alvocidib 0.159 | defactinib 0.05 | [4] -0.024 | [8] 0.054

PACSIN3 (UniProt Q9UKS6)
inactive: epoxomicin 0.048 | [9] 0.169 | [3] -0.136

PABPN1 (UniProt Q86U42)
inactive: [5] 0.117 | rosiglitazone -0.078 | [2] 0.078 | [7] 0.157 | saracatinib 0.132 | alvocidib 0.224 | [4] -0.071

PEMT isoform 2 (UniProt Q9UBM1)
inactive: [9] 0.001 | Tubastatin A -0.106 | [3] 0.003

PDE4DIP (UniProt E9PS60)
inactive: [10] 0.047 | [6] 0.095 | [3] -0.196 | defactinib 0.095 | rucaparib 0.172 | encorafenib 0.125 | [8] 0.032

PCMTD1 (UniProt Q96MG8)
inactive: [1] 0.058 | epoxomicin -0.044 | rosiglitazone 0.181 | [2] 0.006 | saracatinib -0.269 | [4] 0.272

PCDH1 isoform 2 (UniProt Q08174)
inactive: sotrastaurin 0.061 | Tubastatin A -0.007

PALM (UniProt O75781)
inactive: [9] 0.08 | [6] -0.014 | [3] -0.088 | defactinib -0.111 | [8] 0.067

PCGF6 (UniProt Q9BYE7)
inactive: [2] -0.013 | saracatinib -0.03 | [4] -0.079
